Test [1] addresses T1, IFI27-S63L-HA variant (human) (UniProt P40305).
T1 sequence: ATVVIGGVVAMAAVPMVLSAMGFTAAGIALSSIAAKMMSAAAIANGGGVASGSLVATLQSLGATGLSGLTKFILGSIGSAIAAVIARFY
The test is described as follows: co-IP; HEK-293T co-transfected with IFI27-HA (WT or variants) and PACT-FLAG, poly(I:C) 3000 ng/ml for 24 h; anti-HA affinity resin overnight at 4 °C; Western blot with anti-FLAG and anti-HA.

In test [2] the target is T2, IFI27-V82A-HA variant (human) (UniProt P40305).
T2 sequence: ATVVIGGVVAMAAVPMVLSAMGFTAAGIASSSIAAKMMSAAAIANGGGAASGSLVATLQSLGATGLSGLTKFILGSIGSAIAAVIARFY
Described as above.

These are yes or no findings as the source states them, for the method shown. In cells and extracts the contact can be indirect. Where a sequence is shown, tags or fusion partners need not be part of it.

B1: PKR-activating protein (PACT) fused to a C-terminal FLAG tag (protein, UniProt O75569-1 1-313)
chain: MSQSRHRAEAPPLEREDSGTFSLGKMITAKPGKTPIQVLHEYGMKTKNIPVYECERSDVQIHVPTFTFRVTVGDITCTGEGTSKKLAKHRAAEAAINILKANASICFAVPDPLMPDPSKQPKNQLNPIGSLQELAIHHGWRLPEYTLSQEGGPAHKREYTTICRLESFMETGKGASKKQAKRNAAEKFLAKFSNISPENHISLTNVVGHSLGCTWHSLRNSPGEKINLLKRSLLSIPNTDYIQLLSEIAKEQGFNITYLDIDELSANGQYQCLAELSTSPITVCHGSGISCGNAQSDAAHNALQYLKIIAERK
As for B1, the binding entry in test [1] and in test [2] was “no binding” in each case.

(Values after paper PMC12204625.)
